One assay has as its target T1, TNF-β (UniProt P01374).
T1 sequence (looked up): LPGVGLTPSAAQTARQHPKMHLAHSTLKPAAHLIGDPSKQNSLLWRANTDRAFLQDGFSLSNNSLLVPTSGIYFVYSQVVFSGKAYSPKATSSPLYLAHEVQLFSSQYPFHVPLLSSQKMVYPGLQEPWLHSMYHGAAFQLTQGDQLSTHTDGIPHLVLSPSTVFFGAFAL
As to the kind of experiment: ELISA (FIG. 7): purified native TR1 receptor in 96-well plate, 10 ng TNF-β added, detected with phosphatase-labeled polyclonal anti-TNF-β antibody.

Chains of the proteins cited; added tags and fusions are not shown. Residues count along the entry.
UniProt P01375, residues 77-233: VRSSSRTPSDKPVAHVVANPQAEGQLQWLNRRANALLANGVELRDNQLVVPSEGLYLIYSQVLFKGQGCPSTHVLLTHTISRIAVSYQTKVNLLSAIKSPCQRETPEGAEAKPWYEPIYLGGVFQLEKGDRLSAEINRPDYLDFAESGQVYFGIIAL

The target of a further assay is TNF-α (UniProt P01375). Nature of the assay: ELISA (FIG. 7): purified native TR1 receptor in 96-well plate, 10 ng TNF-α added, detected with phosphatase-labeled polyclonal anti-TNF-α antibody. On the technique in general: An ELISA detects its analyte on a solid surface through an enzyme-linked reagent.

No constants are given. Whether binding was seen depends on the method and setting. Some entries that bind do so weakly or less than the wild type.

B1: native TR1 receptor (purified soluble native TR1 receptor, HSABH13 protein) (receptor)
chain: ETFPPKYLHYDEETSHQLLCDKCPPGTYLKQHCTAKWKTVCAPCPDHYYTDSWHTSDECLYCSPVCKELQYVKQECNRTHNRVCECKEGRYLEIEFCLKHRSCPPGFGVVQAGTPERNTVCKRCPDGFFSNETSSKAPCRKHTNCSVFGLLLTQKGNATHDNICSGNSESTQKCGIDVTLCEEAFFRFAVPTKFTPNWLSVLVDNLPGTKVNAESVERIKRQHSSQEQTFQLLKLWKHQNKDQDIVKKIIQDIDLCENSVQRHIGHANLTFEQLRSLMESLPGKKVGAEDIEKTIKACKPSDQILKLLSLWRIKNGDQDTLKGLMHALKHSKTYHFPKTVTQSLKKTIRFLHSFTMYKLYQKLFLEMIGNQVQSVKISCL
As for B1, the binding result in the assay with TNF-β and in the assay with TNF-α was “binds” throughout.
